Results reported in the supplement of paper PMC9135407.
Where “and” joins values, the source holds several entries; their conditions need not be identical. Equal values may be shown once. Where a name gives a salt, the structure may show the parent alone. ± gives the standard deviation of the averaged measurements. This is one part of the list. Baselines shift from plate to plate; read single values as rough.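 Culture-activated primary human stellate myofibroblasts, where regained lipid droplets signal inactivation. Value: share of Hoechst-counted cells above a per-plate Bodipy cutoff, in duplicate wells, with DMSO negative and nortriptyline positive controls on each plate. Hits: a control-normalized score above the plate's top-tenth-percentile nortriptyline wells, or one of a plate's three best wells. Final well concentrations are not given.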

System: primary human hepatic stellate cells (donor 1)
Experiment: percent Bodipy-positive cells; higher = more lipid droplet accumulation
Conditions: 48 h
[1] = library stock concentration: 1 mM
[2] = library stock concentration: 3.33 mM
[3] = library stock concentration: 10 mM

SMILES: N=C(N)SCCc1cccc(CCSC(=N)N)c1 [1,3-PBIT (dihydrobromide)]
- percent Bodipy-positive cells [1]: 6.26 ± 3.1%

SMILES: O=c1cc(-c2ccc(O)cc2)oc2cc(O)cc(O)c12 [Apigenin]
- percent Bodipy-positive cells: 24.9 ± 5.2%
- percent Bodipy-positive cells [2]: 6.86 ± 1.4%

SMILES: CO[C@H]1/C=C/O[C@@]2(C)Oc3c(C)c(O)c4c(c3C2=O)C2=NC3(CCN(CC(C)C)CC3)NC2=C(NC(=O)/C(C)=C\C=C\[C@H](C)[C@H](O)[C@@H](C)[C@@H](O)[C@@H](C)[C@H](OC(C)=O)[C@@H]1C)C4=O
- percent Bodipy-positive cells [3]: 11.5 ± 1.3%

SMILES: CO[C@H]1/C=C/O[C@@]2(C)Oc3c(C)c(O)c4c(c3C2=O)C2=NC3(CCN(CC(C)C)CC3)NC2=C(NC(=O)/C(C)=C\C=C\[C@H](C)[C@H](O)[C@@H](C)[C@@H](O)[C@@H](C)[C@H](OC(C)=O)[C@@H]1C)C4=O [Rifabutin]
- percent Bodipy-positive cells: 6.35 ± 1.7%
- percent Bodipy-positive cells [3]: 29.9 ± 6.1%

SMILES: CCOC(=O)C1=C(C)NC(C)=C(C(=O)OCC)C1c1c(F)c(F)c(F)c(F)c1F [Nemadipine-A]
- percent Bodipy-positive cells [3]: 77.1 ± 22%

SMILES: C1=CCOCc2cc(ccc2OCCN2CCCC2)Nc2nccc(n2)-c2cccc(c2)COC1 [Pacritinib]
- percent Bodipy-positive cells [3]: 97.2 ± 2.3%

SMILES: CC(C)n1nc(-c2cc3cc(O)ccc3[nH]2)c2c(N)ncnc21
- percent Bodipy-positive cells [2]: 1.5 ± 0.43%
- percent Bodipy-positive cells [3]: 18.1 ± 3.5%

SMILES: NC(=O)N1c2ccccc2C=Cc2ccccc21
- percent Bodipy-positive cells [3]: 32.3 ± 13%

SMILES: NC(=O)N1c2ccccc2C=Cc2ccccc21 [Carbamazepine]
- percent Bodipy-positive cells: 23.9 ± 6.3%
- percent Bodipy-positive cells [2]: 28.4 ± 4.5%

SMILES: CC[n+]1c(/C=C/N(C)c2ccccc2)n(-c2ccccc2)c2ccc(-c3nc4ccccc4s3)cc21 [Akt Inhibitor IV]
- percent Bodipy-positive cells [2]: 24.1 ± 4.8%

SMILES: COc1ccccc1CNC1CCCNC1c1ccccc1 (configuration not stated)
- percent Bodipy-positive cells [3]: 59.8 ± 2.6%

SMILES: N#Cc1ccccc1OCC(O)CNCCNC(=O)Nc1ccccc1 (configuration not stated)
- percent Bodipy-positive cells [3]: 16.8 ± 2.5%

SMILES: NCCC[C@H](N)C(=O)O
- percent Bodipy-positive cells [3]: 20.7 ± 2%

SMILES: Clc1ccc(C(Cn2ccnc2)OCc2c(Cl)cccc2Cl)c(Cl)c1 (configuration not stated) [Isoconazole nitrate]
- percent Bodipy-positive cells [2]: 5.46 ± 1.3%
- percent Bodipy-positive cells [3]: 27.9 ± 0.81%

SMILES: Clc1ccc(C(Cn2ccnc2)OCc2c(Cl)cccc2Cl)c(Cl)c1 (configuration not stated) [Isoconazole]
- percent Bodipy-positive cells: 28.9 ± 2.3%

SMILES: CCCCCCCCCCCCCCCCCCCCCCCCC(=O)OC [Pentacosanoic Acid methyl ester]
- percent Bodipy-positive cells [1]: 8.83 ± 2.4%

SMILES: COc1c(O[C@@H]2O[C@H](CO)[C@@H](O)[C@H](O)[C@H]2O)cc2c(c1OC)-c1ccc(SC)c(=O)cc1[C@@H](NC(C)=O)CC2 [Thiocolchicoside]
- percent Bodipy-positive cells: 23.4 ± 1.8%

SMILES: CCCCCCCCCCCCCC=CC(O)C(COP(=O)(O)O)NC(=O)CCCCCCC (configuration not stated) [C-8 Ceramide-1-phosphate]
- percent Bodipy-positive cells [1]: 10.1 ± 1.4%

SMILES: NC(CO)(CO)CO [Trometamol]
- percent Bodipy-positive cells [2]: 11.7 ± 4.1%
- percent Bodipy-positive cells [3]: 25.1 ± 6.4%

SMILES: CN1CCC(=C2c3ccccc3CC(=O)c3sccc32)CC1.O=C(O)/C=C/C(=O)O [Ketotifen fumarate]
- percent Bodipy-positive cells [3]: 88.3 ± 4%

SMILES: CC(=O)c1ccc2c(c1)N(CCCN(C)C)c1ccccc1S2.O=C(O)/C=C\C(=O)O [Acepromazine maleate]
- percent Bodipy-positive cells [3]: 91.1 ± 1.2%

SMILES: O=C(CCCCCCNC(=O)c1cnc(N(c2ccccc2)c2ccccc2)nc1)NO [Rocilinostat]
- percent Bodipy-positive cells (library stock concentration: 80 uM): 42.6 ± 1.2%
- percent Bodipy-positive cells (library stock concentration: 400 uM): 38.8 ± 4%
- percent Bodipy-positive cells (library stock concentration: 2 mM): 27.9 ± 3%
- percent Bodipy-positive cells [3]: 68.3 ± 9.8%

SMILES: O=C(CCCCCCNC(=O)c1cnc(N(c2ccccc2)c2ccccc2)nc1)NO [Rocilinostat (ACY-1215)]
- percent Bodipy-positive cells [2]: 33.9 ± 0.89%
- percent Bodipy-positive cells [3]: 80.6 ± 4%

SMILES: O=c1ncccn1[C@@H]1O[C@H](CO)[C@@H](O)[C@H]1O [Zebularine]
- percent Bodipy-positive cells [2]: 33.9 ± 5%
- percent Bodipy-positive cells [3]: 28.6% and 11.1%

SMILES: CN(C)CCN(Cc1cccs1)c1ccccn1 [Methapyrilene hydrochloride]
- percent Bodipy-positive cells: 48.4 ± 2.6%
- percent Bodipy-positive cells (library stock concentration: 6.7 mM): 29.9 ± 2.6%
- percent Bodipy-positive cells [3]: 70.3% and 56%

SMILES: O=c1c(O)c(-c2cc(O)c(O)c(O)c2)oc2cc(O)cc(O)c12 [Myricetin]
- percent Bodipy-positive cells: 25 ± 14%
- percent Bodipy-positive cells [3]: 23.2 ± 4.1%

SMILES: Cc1cc(Cn2cnc3c2CC(C(=O)O)N(C(=O)C(c2ccccc2)c2ccccc2)C3)ccc1N(C)C (configuration not stated)
- percent Bodipy-positive cells [2]: 25.8 ± 3.5%
- percent Bodipy-positive cells [3]: 24.5% and 6.54%

SMILES: O=C(O)c1cc2ccccc2[nH]1 [Indole-2-carboxylic acid]
- percent Bodipy-positive cells [3]: 28.4 ± 17%

SMILES: O=c1c(O)cccc2cc(O)c(O)c(O)c12 [Purpurogallin]
- percent Bodipy-positive cells [3]: 31.3 ± 5.1%

SMILES: Cc1ccc(S(=O)(=O)NC(=O)NN2CC3CCCC3C2)cc1 (configuration not stated) [Gliclazide]
- percent Bodipy-positive cells: 27.1 ± 8.3%
- percent Bodipy-positive cells [2]: 7.16 ± 1.5%
- percent Bodipy-positive cells (library stock concentration: 6.2 mM): 8.54 ± 0.36%

SMILES: COc1ccc(-c2cc(=O)c3c(O)cc(O)cc3o2)cc1 [Acacetin]
- percent Bodipy-positive cells: 19.3 ± 4.9%
- percent Bodipy-positive cells [3]: 28.8 ± 8.6%

SMILES: CC(=O)N[C@@H](CC(=O)N[C@@H](CCC(=O)O)C(=O)O)C(=O)O [Spaglumic acid]
- percent Bodipy-positive cells: 10.6 ± 2.3%
- percent Bodipy-positive cells [3]: 13.7 ± 5.8%

SMILES: c1ccc(C(NCCNC(c2ccccc2)c2ccccc2)c2ccccc2)cc1
- percent Bodipy-positive cells [3]: 77.2 ± 1.3%

SMILES: c1ccc(C(NCCNC(c2ccccc2)c2ccccc2)c2ccccc2)cc1 [AMN 082 dihydrochloride]
- percent Bodipy-positive cells [3]: 43.2 ± 1.4%

SMILES: CN1CCN(c2nc3cc(C(F)(F)F)ccc3n3cccc23)CC1.O=C(O)/C=C\C(=O)O
- percent Bodipy-positive cells [3]: 97.4 ± 1.5%

SMILES: CCCC[C@@H](C=O)NC(=O)[C@H](CC(C)C)NC(=O)OCc1ccccc1 [Calpeptin]
- percent Bodipy-positive cells [3]: 16 ± 3.9%
- percent Bodipy-positive cells (library stock concentration: 13.8 mM): 26.1 ± 6%

SMILES: Cc1ccc(NC(=O)c2ccc(CN3CCN(C)CC3)cc2)cc1Nc1nc(-c2cccnc2)cs1 [Masitinib (AB1010, Masivet) (10 mM)]
- percent Bodipy-positive cells [3]: 100%
